The experiment has as its target T1, NscGFP-5helix (HIV-1).
T1 construct: Expressed in E. coli for split-spGFP reassembly; also called NspGFP-5-helix; N-spGFP-5-helix
Put plainly: split-spGFP reassembly in E. coli, flow cytometry.

B1: C-peptide-CscGFP (other)
chain: MGWMEWDREINNYTSLIHSLIEESQNQQEKNEQELLGGSGGSGTSGGSGKNGIKAKFKIRHNVKDGSVQLADHYQQNTPIGRGPVLLPRNHYLSTRSKLSKDPKEKRDHMVLLEFVTAAGIKHGRDERYK
notes: Expressed in E. coli for split-spGFP reassembly; also called CspGFP-Cpep; C-spGFP fusion of the gp41 C-peptide
Consider B1, for which the binding result is listed as “binds”.

B2: GLUE-Cpep-CscGFP (designed binder)
chain: MEYWHYVETTSSGQPLLREGEKDIAIDQSVGLYHGKSKILQRQRGRIFLTSQRIIYIDDAKPTQNSLGLELDDLAYVNYSSGFLTRSPALILFFKDPSSSTEFVQLSFRKSDGVWFSWATEIALYTILIHSLIEESQNQQEKNEQELLGGSGGSGTSGGSGKNGIKAKFKIRHNVKDGSVQLADHYQQNTPIGRGPVLLPRNHYLSTRSKLSKDPKEKRDHMVLLEFVTAAGIKHGRDERYK
notes: Expressed in E. coli for split-spGFP reassembly; also called CspGFP-GLUE-Cpep; C-spGFP fusion of GLUE-Cpep
On to B2, for which the binding result is listed as “binds”.
